Amino acid sequences for entries named in this document (tags omitted). Residues count along the entry.
UniProt Q13751, residues 18-1172: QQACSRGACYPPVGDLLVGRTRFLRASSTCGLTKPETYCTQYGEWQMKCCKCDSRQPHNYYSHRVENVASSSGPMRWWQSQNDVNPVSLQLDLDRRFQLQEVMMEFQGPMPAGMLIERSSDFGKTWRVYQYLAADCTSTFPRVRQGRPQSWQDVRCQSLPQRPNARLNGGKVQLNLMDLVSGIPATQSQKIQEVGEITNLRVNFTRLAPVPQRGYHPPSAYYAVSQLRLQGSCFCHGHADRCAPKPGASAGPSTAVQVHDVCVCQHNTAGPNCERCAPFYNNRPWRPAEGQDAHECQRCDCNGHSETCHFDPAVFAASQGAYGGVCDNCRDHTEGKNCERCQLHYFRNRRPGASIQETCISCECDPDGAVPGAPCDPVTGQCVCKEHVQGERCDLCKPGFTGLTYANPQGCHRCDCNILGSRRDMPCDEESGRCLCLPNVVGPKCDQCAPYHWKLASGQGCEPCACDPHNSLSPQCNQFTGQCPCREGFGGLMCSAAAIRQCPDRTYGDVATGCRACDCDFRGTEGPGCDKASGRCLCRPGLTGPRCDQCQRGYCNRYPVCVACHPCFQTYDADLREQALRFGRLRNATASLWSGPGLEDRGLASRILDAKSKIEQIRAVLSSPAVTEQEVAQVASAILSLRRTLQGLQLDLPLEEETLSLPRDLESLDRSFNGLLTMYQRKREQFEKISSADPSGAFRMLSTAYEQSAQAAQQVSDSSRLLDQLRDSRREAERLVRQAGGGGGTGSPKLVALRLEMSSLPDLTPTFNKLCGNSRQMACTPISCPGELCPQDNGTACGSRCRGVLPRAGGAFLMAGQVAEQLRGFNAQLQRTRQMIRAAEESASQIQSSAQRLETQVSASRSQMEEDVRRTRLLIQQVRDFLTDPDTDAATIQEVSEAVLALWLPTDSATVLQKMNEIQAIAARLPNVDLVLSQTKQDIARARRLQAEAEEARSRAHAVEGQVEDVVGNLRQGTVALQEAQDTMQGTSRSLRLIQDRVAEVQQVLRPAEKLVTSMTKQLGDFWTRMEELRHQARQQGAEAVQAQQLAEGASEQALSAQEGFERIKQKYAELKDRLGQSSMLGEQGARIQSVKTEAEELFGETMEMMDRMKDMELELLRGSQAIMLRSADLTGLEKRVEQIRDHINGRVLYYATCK
UniProt Q04695: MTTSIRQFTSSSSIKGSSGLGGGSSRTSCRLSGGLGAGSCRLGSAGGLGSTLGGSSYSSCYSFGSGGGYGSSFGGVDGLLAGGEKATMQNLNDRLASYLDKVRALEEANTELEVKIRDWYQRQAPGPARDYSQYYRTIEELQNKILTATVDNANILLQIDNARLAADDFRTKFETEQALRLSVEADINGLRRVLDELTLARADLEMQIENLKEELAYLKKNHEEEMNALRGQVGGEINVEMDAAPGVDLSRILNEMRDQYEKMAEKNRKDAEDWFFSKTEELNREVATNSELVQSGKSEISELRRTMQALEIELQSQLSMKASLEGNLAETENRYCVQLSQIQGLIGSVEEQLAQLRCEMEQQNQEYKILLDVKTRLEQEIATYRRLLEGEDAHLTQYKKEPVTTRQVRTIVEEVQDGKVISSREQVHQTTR

According to article PMC9818352:

B1: LAMC2, endogenous in PDAC cell lines (protein, UniProt Q13753 22-1193)
chain: TSRREVCDCNGKSRQCIFDRELHRQTGNGFRCLNCNDNTDGIHCEKCKNGFYRHRERDRCLPCNCNSKGSLSARCDNSGRCSCKPGVTGARCDRCLPGFHMLTDAGCTQDQRLLDSKCDCDPAGIAGPCDAGRCVCKPAVTGERCDRCRSGYYNLDGGNPEGCTQCFCYGHSASCRSSAEYSVHKITSTFHQDVDGWKAVQRNGSPAKLQWSQRHQDVFSSAQRLDPVYFVAPAKFLGNQQVSYGQSLSFDYRVDRGGRHPSAHDVILEGAGLRITAPLMPLGKTLPCGLTKTYTFRLNEHPSNNWSPQLSYFEYRRLLRNLTALRIRATYGEYSTGYIDNVTLISARPVSGAPAPWVEQCICPVGYKGQFCQDCASGYKRDSARLGPFGTCIPCNCQGGGACDPDTGDCYSGDENPDIECADCPIGFYNDPHDPRSCKPCPCHNGFSCSVMPETEEVVCNNCPPGVTGARCELCADGYFGDPFGEHGPVRPCQPCQCNNNVDPSASGNCDRLTGRCLKCIHNTAGIYCDQCKAGYFGDPLAPNPADKCRACNCNPMGSEPVGCRSDGTCVCKPGFGGPNCEHGAFSCPACYNQVKIQMDQFMQQLQRMEALISKAQGGDGVVPDTELEGRMQQAEQALQDILRDAQISEGASRSLGLQLAKVRSQENSYQSRLDDLKMTVERVRALGSQYQNRVRDTHRLITQMQLSLAESEASLGNTNIPASDHYVGPNGFKSLAQEATRLAESHVESASNMEQLTRETEDYSKQALSLVRKALHEGVGSGSGSPDGAVVQGLVEKLEKTKSLAQQLTREATQAEIEADRSYQHSLRLLDSVSRLQGVSDQSFQVEEAKRIKQKADSLSSLVTRHMDEFKRTQKNLGNWKEEAQQLLQNGKSGREKSDQLLSRANLAKSRAQEALSMGNATFYEVESILKNLREFDLQVDNRKAEAEEAMKRLSYISQKVSDASDKTQQAERALGSAAADAQRAKNGAGEALEISSEIEQEIGSLNLEANVTADGALAMEKGLASLKSEMREVEGELERKELEFDTNMDAVQMVITEAQKVDTRAKNAGVTIQDTLNTLDGLLHLMDQPLSVDEEGLVLLEQKLSRAKTQINSQLRPMMSELEERARQQRGHLHLLETSIDGILADVKNLENIRDNLPPGCYNTQALEQQ

Target: LAMB3 over-expressed from a plasmid containing full-length LAMB3 cDNA (pLAMB3), Flag-tagged (human) (UniProt Q13751)
Assay: affinity purification with mass spectrometry; PANC-1 cells transfected with pLAMB3 or control plasmid pNC; anti-FLAG immunoprecipitate, gel pieces digested, LC-MS (Q Exactive, PEAKS Studio 8.5); proteins found only in the pLAMB3 group taken as hits

Molecule | binding
KRT17, endogenous in PANC-1 cells (from UniProt Q04695 1-432) | binds
B1 | binds

Results are given in words; binding and its absence hold for the method and conditions named. In cells and extracts the contact can be indirect. Here binding means that the protein was enriched with, or labelled near, the bait; the list need not be complete.
